{"source": "PubChem BioAssay AID624297", "about": "(National Center for Advancing Translational Sciences (NCATS), 2012)", "note": "About 6,200 (1.8%) of roughly 340,000 compounds were called active. Inconclusive means that the source gave no clear call. Such entries were picked first, then a sample of the others. Calls follow the shape of the dose curve; as a rule, active = well fitted activation curve with a large enough effect; inconclusive = small, poorly fitted or top-dose-only effect; inactive = no such curve, though single readings can be large or run the other way. Potencies of inconclusive entries are doubtful fits and often do not repeat. Potency is read from the fitted curve at half-maximal effect."}
{"assay": "A quantitative high throughput screen for small molecules that induce DNA re-replication in SW480 colon adenocarcinoma cells; also: nearly all actives have a fitted effect of over 55% in size; as to re-replication activation: % of control where 0% means no effect.", "details": "Hoechst DNA content imaging, 48 h; re-replication activation: at 46.1 µM (top of the series) unless noted", "method_in_brief": "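Image-based read-out: total Hoechst fluorescence of nuclei (405 nm excitation, 500-530 nm emission), with hits raising the fraction of high-intensity nuclei. SW480 colon cells incubated 48 hr with compounds at 37 C.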"}
{"compound": "COc1ccccc1S(=O)(=O)Cc1ccc(C(=O)NCc2ccccc2)o1", "re-replication activation": "inactive: 1.97%"}
{"compound": "FC(F)(F)COc1nc(N2CCOCC2)nc(N(c2ccccc2)c2ccccc2)n1", "Potency": "inconclusive: 16.4 µM [activator, partial curve, poor fit]"}
{"compound": "CC(C)=CCC/C(C)=C/CNC(=O)C[C@H]1C[C@H](C(=O)N(C(C)C)C(C)C)[C@@]2(C)c3[nH]c4ccc(Cl)cc4c3CCN2C1=O", "re-replication activation": "inactive: 18.9%"}
{"compound": "O=c1c2cc(Cl)ccc2nc(-c2ccccc2)n1O", "Potency": "inconclusive: 23.1 µM [activator, partial curve, poor fit]"}
{"compound": "C/C(N)=C(/C#N)C(=O)CSc1nc2ccccc2c(=O)n1-c1ccc(C)c(Cl)c1", "re-replication activation": "inactive: 12.1%"}
{"compound": "Cc1cccc(C(=O)OCC(=O)NC(C)C2CC3CCC2C3)c1O", "note": "(stereo not given)", "re-replication activation": "inactive: -17.9%"}
{"compound": "CCCNC(=O)c1ccc(C2SCC(=O)N2Cc2ccccc2)cc1", "note": "(stereo not given)", "re-replication activation": "inactive: 3.19%"}
{"compound": "Cc1coc2c(C)c3oc(=O)c(CCC(=O)NCc4ccccn4)c(C)c3cc12", "Potency": "inconclusive: 2.91 µM [activator, single point]"}
{"compound": "CCC(SC1=N/C(=C/c2ccccc2OC)C(=O)N1c1ccccc1)C(=O)Nc1cc(C)on1", "note": "(stereo not given)", "Potency": "inconclusive: 29.1 µM [activator, single point]"}
{"compound": "Cc1ccc(/C=N/NC(=O)CNC(=O)c2ccc(C)c([N+](=O)[O-])c2)o1", "Potency": "inconclusive: 0.116 µM [activator, full curve]"}
{"compound": "O=C(O)c1ccc(NN=Cc2cc(=O)[nH]c(=O)[nH]2)cc1", "re-replication activation": "inactive: -4.3%"}
{"compound": "CCOc1ccc(C(=O)n2cnnc2N)cc1", "Potency": "inconclusive: 5.17 µM [activator, full curve, poor fit]"}
{"compound": "CC(C)N1C/C(=C/c2cccnc2)C(=O)/C(=C/c2cccnc2)C1", "Potency": "inconclusive: 2.06 µM [activator, partial curve, poor fit]"}
{"compound": "CS(=O)(=O)N(Cc1ccccc1Cl)c1ccc(C(=O)NCc2ccccn2)cc1", "Potency": "inconclusive: 29.1 µM [activator, single point]"}
{"compound": "COC(=O)c1ccc(Cl)c(NC(=O)NC23CC4CC(CC(C4)C2)C3)c1", "Potency": "inconclusive: 23.1 µM [activator, single point]"}
{"compound": "Cc1ccc(C(=O)NCCN2C3=NC[C@@H](Cc4ccccc4)N3C[C@H]2Cc2ccc(O)cc2)cc1Br", "re-replication activation": "inactive: 1.3%"}
{"compound": "CCc1sc(C(=O)NCc2cc(C)n(C)n2)cc1Br", "Potency": "inconclusive: 29.1 µM [activator, single point]"}
{"compound": "Cc1ccc(NC(=O)c2ccc(NCCCN3CCC(C)CC3)c([N+](=O)[O-])c2)cc1F", "Potency": "inconclusive: 29.1 µM [activator, single point]"}
{"compound": "CN1C(=O)C2(Oc3ccccc3C3CC(c4ccccc4)=NN32)c2ccccc21", "note": "(stereo not given)", "Potency": "inconclusive: 29.1 µM [activator, single point]"}
{"compound": "CCN1CSC(=S)N(Cc2ccc(OC)cc2)C1", "Potency": "inconclusive: 29.1 µM [activator, single point]"}
{"compound": "O=C1C2C3c4ccccc4C(c4ccccc43)[C@@H]2C(=O)N1c1ccccn1", "note": "(stereo not given in full)", "re-replication activation": "inactive: -8.41%"}
{"compound": "O=C1N[C@@H](Cc2ccccc2)COC(=O)[C@H](Cc2ccc(F)cc2)CC/C=C/C[C@H]1CC(=O)N(CCO)Cc1ccccc1", "Potency": "inconclusive: 29.1 µM [activator, single point]"}
{"compound": "CC(=O)c1ccc(OCc2cc(C(=O)N3CC[C@@H]4CCCC[C@H]4C3)no2)cc1", "Potency": "inconclusive: 25.9 µM [activator, partial curve, poor fit]"}
{"compound": "O=C(N=C1SC2CS(=O)(=O)CC2N1c1ccc(Br)cc1Cl)C1CC1", "note": "(stereo not given)", "Potency": "inconclusive: 29.1 µM [activator, single point]"}
{"compound": "COc1cc(OC)c(OC)cc1/C=C/C(=O)c1ccc(NS(=O)(=O)c2ccc(C)cc2)cc1", "Potency": "inconclusive: 20.6 µM [activator, single point]"}
{"compound": "O=C(Cn1cnc2ccccc2c1=O)N1CCN(Cc2ccc3c(c2)OCO3)CC1", "re-replication activation": "inactive: -6.47%"}
{"compound": "O=C1CCCN1CCCN=c1c([N+](=O)[O-])nn(-c2ccc(Cl)cc2)n1O", "Potency": "inconclusive: 23.1 µM [activator, single point]"}
{"compound": "O=C(Cc1ccc(Cl)cc1)Nc1ccc(Br)cn1", "Potency": "inconclusive: 29.1 µM [activator, single point]"}
{"compound": "CN(Cc1ccccc1Br)C(=O)CSc1nnnn1C1CC1", "re-replication activation": "inactive: -13.1%"}
{"compound": "CCCN(CC(=O)Nc1ccc(F)c(F)c1F)C(=O)C1=COCCO1", "Potency": "inconclusive: 6.51 µM [activator, partial curve, poor fit]"}
{"compound": "Cc1c(Cc2ccccc2)c(=O)oc2c(C)c(OC(C)C(=O)N[C@@H](Cc3ccccc3)C(=O)O)ccc12", "note": "(stereo not given in full)", "Potency": "inconclusive: 29.1 µM [activator, single point]"}
{"compound": "Cc1ccc(CNC(=O)C(CC(C)C)OC(=O)c2ccco2)cc1", "note": "(stereo not given)", "re-replication activation": "inactive: -1.66%"}
{"compound": "S=C(Nc1ccccc1)N1CCCCC1", "Potency": "inconclusive: 29.1 µM [activator, single point]"}
{"compound": "COc1ccc(NC(=O)[C@H](Cc2c[nH]c3ccccc23)NC(=O)[C@@H]2Cc3ccccc3CN2)cc1", "Potency": "inconclusive: 10.3 µM [activator, partial curve, poor fit]"}
{"compound": "O=C(NCc1ccccc1OC(F)(F)F)C1CCC(=O)N(C2CC2)C1", "note": "(stereo not given)", "re-replication activation": "inactive: -1.23%"}
{"compound": "O=C1N[C@@H](c2ccccc2)COC(=O)[C@@H](Cc2ccc(F)cc2)CC/C=C/C[C@H]1CC(=O)N(CCO)Cc1ccccc1", "Potency": "inconclusive: 32.6 µM [activator, partial curve, poor fit]"}
{"compound": "CC(C)(C)OC(=O)[C@H](Cc1ccccc1)NC(=O)c1[nH]cnc1C(=O)Nc1cccc(Cl)c1", "re-replication activation": "inactive: 6.77% [at 9.22 µM]"}
{"compound": "COC(=O)c1cccc(C(=O)N2CCCC(C(=O)c3cccc(OC(C)C)c3)C2)c1", "note": "(stereo not given)", "Potency": "inconclusive: 29.1 µM [activator, single point]"}
{"compound": "CC(C)COCC(CN(Cc1ccccc1)c1ccccc1)N1CCCC1", "note": "(stereo not given)", "Potency": "inactive"}
{"compound": "N=c1n(CCN2CCOCC2)c2ccccc2n1CC(=O)c1ccc(Cl)c(Cl)c1", "Potency": "inconclusive: 18.4 µM [activator, single point]"}
{"compound": "COc1ccc(C(CNC(=O)c2cccc(S(=O)(=O)Nc3ccc(F)cc3)c2)N(C)C)cc1", "note": "(stereo not given)", "re-replication activation": "inactive: 2.4%"}
{"compound": "O/N=C\\c1ccc(-c2ccccc2)o1", "Potency": "inconclusive: 16.4 µM [activator, partial curve]"}
{"compound": "Cc1ccc(/C=c2\\sc3nc(-c4ccccc4Br)nn3c2=O)o1", "re-replication activation": "inactive: -1.1%"}
{"compound": "CCOc1ccc(-c2nnc(-c3ccncc3)o2)cc1", "re-replication activation": "inactive: -2.37%"}
{"compound": "Cc1ccc(-c2nnn(CC(=O)N(Cc3cccs3)C(C(=O)NC3CCCC3)c3ccncc3)n2)cc1", "note": "(stereo not given)", "Potency": "inconclusive: 18.4 µM [activator, single point]"}
{"compound": "COC(=O)c1ccc(OCC2c3cc(OC)c(OC)cc3CCN2C(C)=O)cc1", "note": "(stereo not given)", "re-replication activation": "inactive: 3.71%"}
{"compound": "CC(C)Oc1ccc(CCC(=O)NNC(=S)Nc2ccccc2)cc1", "re-replication activation": "inactive: 0.941%"}
{"compound": "O=C(COc1ncnc2ccccc12)NCc1ccco1", "Potency": "inconclusive: 1.64 µM [activator, partial curve, poor fit]"}
{"compound": "CC[C@@]1(O)C(=O)OCc2c1cc1n(c2=O)Cc2cc3c([N+](=O)[O-])cccc3nc2-1", "Potency": "inconclusive: 0.0944 µM [activator, full curve]"}
{"compound": "Cn1c(SCC(=O)c2cc(Cl)c(Cl)s2)nnc1-c1ccco1", "Potency": "inconclusive: 1.46 µM [activator, partial curve, poor fit]"}
{"compound": "COc1ccc(Nc2cc(C)c3c(O)cccc3n2)cc1", "Potency": "inconclusive: 16.4 µM [activator, single point]"}
{"compound": "COc1ccccc1NC1=C(N2CCCCC2)C(=O)c2ccccc2C1=O", "Potency": "active: 4.61 µM"}
{"compound": "O=C1/C(=C/c2cccnc2)SC(=S)N1Cc1ccco1", "Potency": "inconclusive: 18.4 µM [activator, single point]"}
{"compound": "Cc1ccc2nc(NNC(=O)c3ccc(S(=O)(=O)N4CCc5ccccc5C4)cc3)sc2c1", "Potency": "inconclusive: 2.91 µM [activator, partial curve, poor fit]"}
{"compound": "O=C(CSc1nnc(-c2ccccc2F)n1C1CC1)Nc1ccc2[nH]c(=O)[nH]c2c1", "Potency": "inconclusive: 4.61 µM [activator, single point]"}
{"compound": "COc1cccc(Oc2cncnc2-c2ccc(OC)cc2O)c1", "Potency": "inconclusive: 29.1 µM [activator, partial curve, poor fit]"}
{"compound": "O=S(=O)(Nc1nc2ccccc2nc1N1CCc2ccccc2C1)c1ccc(Cl)cc1", "Potency": "inconclusive: 16.4 µM [activator, partial curve]"}
{"compound": "COc1ccc([C@@H]2Sc3ccccc3NC(=O)[C@@H]2O)cc1", "Potency": "inconclusive: 29.1 µM [activator, single point]"}
{"compound": "N#Cc1ccccc1NC(=O)COc1ccccc1C(=O)Nc1ccccc1", "Potency": "inconclusive: 29.1 µM [activator, single point]"}
{"compound": "O=C(/C=C/c1ccc2c(c1)OCO2)c1cccnc1", "Potency": "inconclusive: 23.1 µM [activator, single point]"}
{"compound": "COC(=O)N1C(=O)[C@@](c2ccccc2)(C(C)C)N1C(=O)OC", "Potency": "inconclusive: 16.4 µM [activator, single point]"}
{"compound": "Cc1ccc(N(C(=O)c2csnn2)C(C(=O)NC(C)(C)C)c2cccs2)cc1", "note": "(stereo not given)", "Potency": "inconclusive: 23.1 µM [activator, partial curve, poor fit]"}
{"compound": "CCNC1CCS(=O)(=O)C1", "note": "(stereo not given)", "Potency": "inconclusive: 29.1 µM [activator, single point]"}
{"compound": "O=C(N/N=C/C(Cl)=C/c1ccccc1)c1ccc2c(c1)OCO2", "Potency": "inconclusive: 18.4 µM [activator, partial curve, poor fit]"}
{"compound": "O=C(CCCO)NNc1c2ccccc2nc2ccccc12", "Potency": "inconclusive: 0.731 µM [activator, partial curve, poor fit]"}
